Measurements: article PMC9935903
Results are given in words; binding and its absence hold for the method and conditions named. Binding seen in cells or lysates may run through a third protein. Binding can be weak; no strength is given.

Biological target: T1, SIRT1 (mouse (endogenous in C57BL/6J tissues, HT22 and BV2 cells)) (UniProt Q923E4)
T1 sequence: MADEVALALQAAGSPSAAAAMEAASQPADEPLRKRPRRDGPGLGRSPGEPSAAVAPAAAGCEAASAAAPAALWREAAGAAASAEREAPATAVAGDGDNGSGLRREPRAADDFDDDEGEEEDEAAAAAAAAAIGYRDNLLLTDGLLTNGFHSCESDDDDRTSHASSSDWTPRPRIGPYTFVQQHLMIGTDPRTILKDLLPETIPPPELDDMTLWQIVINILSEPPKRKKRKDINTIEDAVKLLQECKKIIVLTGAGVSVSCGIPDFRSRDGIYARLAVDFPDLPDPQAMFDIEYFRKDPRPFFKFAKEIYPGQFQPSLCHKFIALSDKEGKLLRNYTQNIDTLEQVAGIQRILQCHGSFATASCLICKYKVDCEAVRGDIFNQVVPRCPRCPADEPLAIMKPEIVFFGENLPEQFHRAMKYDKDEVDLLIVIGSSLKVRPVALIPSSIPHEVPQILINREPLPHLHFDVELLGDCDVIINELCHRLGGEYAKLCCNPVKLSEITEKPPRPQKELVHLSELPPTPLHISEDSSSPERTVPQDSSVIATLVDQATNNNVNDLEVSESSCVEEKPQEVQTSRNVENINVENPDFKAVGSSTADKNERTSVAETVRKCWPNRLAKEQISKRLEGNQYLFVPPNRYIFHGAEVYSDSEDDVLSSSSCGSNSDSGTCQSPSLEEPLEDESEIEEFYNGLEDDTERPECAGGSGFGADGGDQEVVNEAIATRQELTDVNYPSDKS
Assay: co-IP; HT22 cell lysate, endogenous proteins; cells treated with nicotine (1, 10, 100 ng/mL), resveratrol, SRT1720, Selisistat, FK866, Nampt-IN-1, cotinine, β-galactose or an nAChR inhibitor; SIRT1 or NAMPT/PBEF antibody, protein A/G agarose, western blot; IgG as negative control

NF-κB (mouse (endogenous in HT22)) was tested, and the binding was “binds”.
